# In the supplement of paper PMC5949888:
# ± gives the standard deviation of the averaged measurements. Most values lie at the floor of the assay. Slopes are relative: functional sequences can read slightly below zero.
# System: Saccharomyces cerevisiae PS128 hsf1 delta, HSF1(1-493) fusion
# Assay: growth estimate (transactivation domain function in HSF1 fusion, heat-shock survival) (a.u. (slope of normalised read count over time)); higher = stronger growth at 37°C, i.e. more transactivation activity
# Conditions: library: random library
row,Substance,growth estimate
1,TLLNQEQWFRPLGLRRPFGA,< -0.25
2,FMVGWMR,< -0.25
3,IGP,< -0.25
4,PWM,< -0.25
5,YCMGKSPGFGGWQPTPAGWP,< -0.25
6,SFGTQGQNPAEARSRIAQQP,< -0.25
7,LPCQLSHHFRSLHVERVRHW,< -0.25
8,RILLGVEGAPFVQAGFVRVY,< -0.25
9,TQRFDRHRSSLLRPYLERCV,< -0.25
10,CFGRRG,< -0.25
11,QITPISALCNIKPLTCAGRM,< -0.25
12,MSWGKP,< -0.25
13,NYARE,< -0.25
14,RILVIMAFNWLRLKDVGTSR,< -0.25
15,EEALEPPRRREPLRAYGRTP,< -0.25
16,AIRHDLVCVLEKVLVLDRCR,< -0.25
17,ALGPGVHCN,< -0.25
18,GVSQSGDGRRQLDLLNQQGS,< -0.25
19,RRSTIALFGRGRRNLRGLTI,< -0.25
20,FLHRDELRSSTGLRPVWVRV,< -0.25
21,MIY,< -0.25
22,QLPPLI,< -0.25
23,VERETISTTPNGVWALRGSP,< -0.25

# Looked up one by one from the list above:
row,Substance,growth estimate
5,YCMGKSPGFGGWQPTPAGWP,< -0.25
9,TQRFDRHRSSLLRPYLERCV,< -0.25

# Next part

row,Substance,growth estimate
1,DGWEYIALVYWFMIFRRASY,< -0.25
2,WEFNISLGCGKQCSSCMGSL,< -0.25
3,LSGETLYLRGLGSRRPPPRH,< -0.25
4,GRRLKGER,< -0.25
5,PYSATTQNFSNGLLPRYVYP,< -0.25
6,GLHWSRRGFAGQGDRLSDTR,< -0.25
7,YDQSLFASHRDICPQGLLPN,-0.25
8,RVTRLFMSWTPYVDGFTFQT,< -0.25
9,YRQTG,< -0.25
10,QNLFIHNLLLC,< -0.25
11,IAIIIFTNNDC,< -0.25
12,GGLGSVRGPAPKKRDALSR,< -0.25
13,TFVEAHALWIL,< -0.25
14,FSVKNN,< -0.25
15,VRMIGLLSRARTRTPFSSPK,-0.245
16,GTEAAGNIPVVFP,< -0.25
17,SGMSAEVWAKGRG,< -0.25
18,FHYSVSFGPGKLVVRPAIRG,< -0.25
19,HDHRVRWLHGPAGKLLYRSL,< -0.25
20,ESCLCNAK,< -0.25
21,VEVLI,< -0.25
22,SFSQQGAKTTCCGRSIAFAD,< -0.25
23,EESAGARVPCTPGAHQIARC,< -0.25

row,Substance,growth estimate
1,PVHRNRGQGLKKCPKSADCV,< -0.25
2,SRRGLW,< -0.25
3,HILH,< -0.25
4,WWIVIRYRHNWSHLQVTSKV,< -0.25
5,SMVHAKGINLVISRSHLGAE,< -0.25
6,HDGEI,< -0.25
7,RKQLGRLRAPSGYKVVKWSD,< -0.25
8,FGNWVPKAATGG,< -0.25
9,GAHGCTGQRHSSEVSALKGR,< -0.25
10,TCIENEMESATET,< -0.25
11,VLLGVCCKTAGVTLCNGLGT,< -0.25
12,QTA,< -0.25
13,FSDGASIMRPIPHTDPSSIV,< -0.25
14,RLRHREVIRRGHRTTKLVVL,< -0.25
15,VKILNTGLASEGHALDTRNE,< -0.25
16,YEHPGRKSFLKRQGITYPET,-0.246
17,WRGSLR,< -0.25
18,HCPLARGVR,-0.245
19,ASPLRFARSSLLSRSPLVLQ,< -0.25
20,KLERASVRAQDNSVTEATRS,< -0.25
21,QYRTKGVAHVKWFWHAPSET,< -0.25
22,LIKPC,< -0.25
23,TIYVSPPS,< -0.25

row,Substance,growth estimate
1,VFSIGLNGDSIYKSKAVCRR,< -0.25
2,TIRSAYVRDIFITHRGGITS,< -0.25
3,PGDQPNTNGGKQ,< -0.25
4,PDGFVVPYFAVGVARYSR,< -0.25
5,FRSIRRGRDLTWRQAT,< -0.25
6,REGQTCR,< -0.25
7,PLTP,-0.243
8,ARLSKYSHQAHVLRPWSSDP,< -0.25
9,GLHGGCDGPRHRDIREQRPV,< -0.25
10,RVYVCTNGTFSRGLDAVNSA,< -0.25
11,LRAEPS,< -0.25
12,AEKGRISGIALKTEICFGLL,-0.248
13,CSSESVVCQEPSATDPIRHP,< -0.25
14,EPPDLLARIQTLHYARCKEV,< -0.25
15,SGLTRDEVRLYYALTAVSLT,< -0.25
16,ISINRYNEAGCRIKA,< -0.25
17,KPTG,< -0.25
18,EKLLVLRRLILLGRAVSMSS,< -0.25
19,PLLGQSLCRMPG,< -0.25
20,FTLVSVTGMQRSWT,< -0.25
21,RRSAVSQVWMGSHQIGRPGR,< -0.25
22,TVSFYRSNP,-0.0063
23,QSSRRESLT,< -0.25

row,Substance,growth estimate
1,LDSSDGTLRILRGWLPGHLN,< -0.25
2,PCVCPGRVSLDHSSRYVSVS,< -0.25
3,VFRFCIG,< -0.25
4,TLCTVRLLLLNNDPGVLNWV,< -0.25
5,VRIR,< -0.25
6,RGFSVTSGVTVAFTAQRPLY,< -0.25
7,TRVICCITI,< -0.25
8,VFQNLTPHRTQHFSESRIAP,< -0.25
9,GTFQLHQHYCERSPDCVPIL,< -0.25
10,HAVIGYPSLLIPRGSTDWGP,< -0.25
11,RQTKGTGMHQREQSMVCISF,0.0823
12,SSA,< -0.25
13,RPRTTNGDPIGLQVPIGARD,< -0.25
14,RYYDEWVGEAHLYWSPQRHR,< -0.25
15,PDLGGTDLHSPKSDCHNIAT,< -0.25
16,FLLSRARGEEPAISKPDESL,< -0.25
17,LWKTRR,< -0.25
18,HRSTAWTRTVINDATLKRMA,< -0.25
19,KESNESTMNQRYTRRKVS,< -0.25
20,SGVV,< -0.25
21,WKAAMRVSCRSSGHPKLWTN,< -0.25
22,SKVSHTTANVRVIARLSRRR,< -0.25
23,SGLPPSILFWVVLDLERTSP,< -0.25

row,Substance,growth estimate
1,VLL,-0.241 ± 0.012
2,VCAVEVRENQRGVHVYSEIT,< -0.25
3,GISPRCWGNGPRSACMKDRS,< -0.25
4,AFQVVRCAGPNTYQAYTLPA,< -0.253
5,RECACQL,< -0.25
6,GRAPCI,< -0.25
7,ECAARAPPG,< -0.25
8,ILQKPRGLSMAKEGVQAYSS,< -0.25
9,FYDVNVTSGDRGVCKRFIAN,< -0.25
10,VRPI,< -0.25
11,HLSTSYSLSLGGACLL,< -0.25
12,CIPMHRDSNRSTKHISNSQP,< -0.25
13,LEARAAVATKIW,< -0.25
14,VGDSSKYLTNYKGLGLP,< -0.25
15,QPTL,< -0.25
16,STEWIYASKAIIH,< -0.25
17,LWERL,< -0.25
18,VILFSGGLESPSKNLTPRCV,-0.237
19,HGAELPRFGTS,< -0.25
20,MLTNIPVIVLWARGGGAESI,< -0.25
21,RMVAGSRAVNRPRQAVLALI,< -0.25
22,GARVTALV,< -0.25
23,QERYWNIFMQYVRQDGTGKR,< -0.25

row,Substance,growth estimate
1,SPEVEP,< -0.25
2,RGNLHFPAGDASSWEEEDKQ,< -0.25
3,LYRSCHARSRLYDMSRAITT,< -0.25
4,PILAQDWEDQIQVMM,< -0.25
5,WPIC,< -0.25
6,LVAMGTLLTSQFCNRWALAT,< -0.25
7,ARSEWKPLEPAKGCMSRFLV,< -0.25
8,QVYHPIPIKDSHLLGCTCPP,< -0.25
9,RGKQQMWQAGGNRGGSAYWI,< -0.25
10,DFRRSL,< -0.25
11,DVSFRSDTP,< -0.25
12,CDSQAW,< -0.25
13,RHMRRNMVARRG,< -0.25
14,PEEGIAEVRSRQLRTRYRHS,< -0.25
15,ASEVGDILFFPLSSFNSAS,-0.135
16,TRLCFVTRVSAGRSPSPGAI,< -0.25
17,RSGINSEGDRS,< -0.25
18,RPPRNDRT,< -0.25
19,RVRDEGRSQPRG,< -0.25

# Single entries from the list.
# Value for TIRSAYVRDIFITHRGGITS under growth estimate: < -0.25
# Value for MSWGKP under growth estimate: < -0.25
# Value for LPCQLSHHFRSLHVERVRHW under growth estimate: < -0.25
